For 2 substances, binding results are on record in article PMC11574253.

By UniProt entry, the sequences of proteins in these tests, tags left out.
UniProt Q9BQ67: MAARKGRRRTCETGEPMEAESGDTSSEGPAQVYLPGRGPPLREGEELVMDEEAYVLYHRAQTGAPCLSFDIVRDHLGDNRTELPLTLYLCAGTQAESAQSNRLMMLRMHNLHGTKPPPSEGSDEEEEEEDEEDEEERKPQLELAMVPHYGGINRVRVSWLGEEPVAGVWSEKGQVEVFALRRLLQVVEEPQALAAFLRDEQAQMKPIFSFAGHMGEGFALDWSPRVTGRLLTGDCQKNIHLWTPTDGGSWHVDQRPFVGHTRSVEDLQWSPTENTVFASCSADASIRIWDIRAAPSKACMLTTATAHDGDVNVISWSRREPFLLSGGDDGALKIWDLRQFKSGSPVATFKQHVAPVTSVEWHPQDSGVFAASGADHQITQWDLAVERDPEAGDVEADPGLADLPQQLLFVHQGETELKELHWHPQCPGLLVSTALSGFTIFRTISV
UniProt Q13242: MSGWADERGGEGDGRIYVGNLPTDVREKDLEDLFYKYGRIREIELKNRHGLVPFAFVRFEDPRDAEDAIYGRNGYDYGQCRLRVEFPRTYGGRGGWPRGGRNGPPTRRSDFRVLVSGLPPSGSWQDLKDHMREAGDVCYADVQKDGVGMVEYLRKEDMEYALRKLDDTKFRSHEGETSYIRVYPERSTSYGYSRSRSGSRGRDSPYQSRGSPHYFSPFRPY

These are yes or no findings as the source states them, for the method shown. In cells and extracts the contact can be indirect. These calls come from enrichment with a bait or labelling near it, and not all partners need be listed. Sequences can lack the tags named with a protein.

For the test, the target named is T1, Flag-tagged human DVL3 (Dishevelled 3), wild type (human) (UniProt Q92997).
T1 sequence: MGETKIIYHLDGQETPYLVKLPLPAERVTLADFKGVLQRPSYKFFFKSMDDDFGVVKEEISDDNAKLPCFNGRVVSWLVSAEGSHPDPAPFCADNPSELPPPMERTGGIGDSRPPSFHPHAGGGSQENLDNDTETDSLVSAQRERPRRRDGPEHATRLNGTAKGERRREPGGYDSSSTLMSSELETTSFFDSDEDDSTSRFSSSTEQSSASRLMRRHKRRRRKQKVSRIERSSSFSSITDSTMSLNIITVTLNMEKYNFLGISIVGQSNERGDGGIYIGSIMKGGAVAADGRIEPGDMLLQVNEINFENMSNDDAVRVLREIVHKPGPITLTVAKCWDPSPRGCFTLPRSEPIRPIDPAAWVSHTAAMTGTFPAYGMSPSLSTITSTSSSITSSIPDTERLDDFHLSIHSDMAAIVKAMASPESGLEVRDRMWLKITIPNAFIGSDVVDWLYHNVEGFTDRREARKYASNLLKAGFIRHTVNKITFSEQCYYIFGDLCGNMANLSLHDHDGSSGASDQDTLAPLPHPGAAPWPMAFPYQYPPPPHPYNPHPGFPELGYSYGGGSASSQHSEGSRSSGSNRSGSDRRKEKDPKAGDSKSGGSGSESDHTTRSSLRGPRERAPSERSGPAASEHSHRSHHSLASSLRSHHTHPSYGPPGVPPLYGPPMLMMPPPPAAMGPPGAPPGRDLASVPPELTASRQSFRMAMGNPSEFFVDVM
Put plainly: affinity purification with mass spectrometry; pulldown (immunopurification) of overexpressed DVL3 WT or E710A/D714A in the presence and absence of TTLL11; LC-MS/MS, three biological replicates; LIMMA, then REPRINT with CRAPOME and SAINTexpress.

In the case of GRWD1 (from UniProt Q9BQ67 1-446), the binding entry was “binds”.
With SRSF9 (from UniProt Q13242 1-221), the binding entry is listed as “binds”.
